Experimental data from patent publication US20070149525A1, “Methods of treating amyloidosis using aryl-cyclopropyl derivative aspartyl protease inhibitors” (priority 2005, published 2007).

Settings: CF-1 mice, 10 μmol/kg IV tail vein
Description: In-life phase: Test compounds were administered to CF-1 (20-30 g) mice at 10 μmol/kg (4 to 7 mg/kg) following IV administration in the tail vein. Two time-points, 5 and 60 min, were collected post dose. Four mice were harvested for heparinized plasma and non-perfused brains at each time-point for a total of 8 mice per compound.
Analytical phase: Samples were extracted and evaporated to dryness, then reconstituted and injected onto a reverse phase chromatographic column while monitoring the effluent with a triple quadrupole mass spectrometer. Quantitation was then performed with a 1/x^2 weighted fit of the least-squares regression from calibration standards prepared in parallel with the in vivo samples. The lower limit of quantitation (LOQ) is generally 1 ng/mL and 0.5 ng/g for the plasma and brain respectively. Data was reported in micromolar (μM) units. Brain levels were corrected for plasma volumes (16 μL/g).

CN1C(=O)CN=C(c2ccccc2)c2cc(Cl)ccc21 [Diazepam]
brain concentration level at 5 min (5 min post dose): 5481 nM | brain concentration level at 60 min (60 min post dose): 176 nM
